Experimental findings from the supplement of paper PMC12067093, “Discovery and optimisation of a covalent ligand for TRIM25 and its application to targeted protein ubiquitination” (Chemical Science, 2025) are described below.

Chains of the proteins cited; added tags and fusions are not shown. Lines headed by an entry give the natural chain unless they say otherwise; changes in a name come on top.
UniProt Q9Y6B6: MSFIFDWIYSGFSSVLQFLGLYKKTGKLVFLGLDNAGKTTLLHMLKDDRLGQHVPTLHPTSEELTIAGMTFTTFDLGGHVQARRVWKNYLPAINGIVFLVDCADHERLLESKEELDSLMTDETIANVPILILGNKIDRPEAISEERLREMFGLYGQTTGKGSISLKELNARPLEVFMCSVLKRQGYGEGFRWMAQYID
UniProt O94855: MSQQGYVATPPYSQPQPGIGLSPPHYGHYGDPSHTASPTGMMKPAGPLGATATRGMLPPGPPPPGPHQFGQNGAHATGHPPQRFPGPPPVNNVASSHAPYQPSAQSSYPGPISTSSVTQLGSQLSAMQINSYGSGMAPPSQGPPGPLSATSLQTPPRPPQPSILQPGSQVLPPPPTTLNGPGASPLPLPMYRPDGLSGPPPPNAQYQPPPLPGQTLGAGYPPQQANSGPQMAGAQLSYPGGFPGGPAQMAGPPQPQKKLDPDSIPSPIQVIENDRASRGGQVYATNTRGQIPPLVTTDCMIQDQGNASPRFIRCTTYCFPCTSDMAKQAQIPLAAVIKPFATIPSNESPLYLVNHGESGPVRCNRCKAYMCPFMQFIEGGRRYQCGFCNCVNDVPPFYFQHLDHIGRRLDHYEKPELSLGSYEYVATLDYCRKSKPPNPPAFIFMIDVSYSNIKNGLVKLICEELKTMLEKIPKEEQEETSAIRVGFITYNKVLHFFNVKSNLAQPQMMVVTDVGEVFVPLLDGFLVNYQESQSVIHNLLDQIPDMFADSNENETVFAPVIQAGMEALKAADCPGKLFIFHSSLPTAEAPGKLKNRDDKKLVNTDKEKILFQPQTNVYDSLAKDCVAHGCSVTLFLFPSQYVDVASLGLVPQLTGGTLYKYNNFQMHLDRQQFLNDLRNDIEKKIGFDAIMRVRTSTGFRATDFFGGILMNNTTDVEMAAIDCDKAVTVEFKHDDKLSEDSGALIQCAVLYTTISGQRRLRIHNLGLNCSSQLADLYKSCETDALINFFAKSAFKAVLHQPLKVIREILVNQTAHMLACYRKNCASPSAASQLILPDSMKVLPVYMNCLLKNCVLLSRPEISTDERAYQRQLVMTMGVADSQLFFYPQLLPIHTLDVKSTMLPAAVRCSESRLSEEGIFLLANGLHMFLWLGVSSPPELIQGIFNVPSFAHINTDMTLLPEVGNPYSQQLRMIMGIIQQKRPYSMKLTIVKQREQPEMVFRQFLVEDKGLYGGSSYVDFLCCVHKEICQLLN
UniProt Q86SQ7: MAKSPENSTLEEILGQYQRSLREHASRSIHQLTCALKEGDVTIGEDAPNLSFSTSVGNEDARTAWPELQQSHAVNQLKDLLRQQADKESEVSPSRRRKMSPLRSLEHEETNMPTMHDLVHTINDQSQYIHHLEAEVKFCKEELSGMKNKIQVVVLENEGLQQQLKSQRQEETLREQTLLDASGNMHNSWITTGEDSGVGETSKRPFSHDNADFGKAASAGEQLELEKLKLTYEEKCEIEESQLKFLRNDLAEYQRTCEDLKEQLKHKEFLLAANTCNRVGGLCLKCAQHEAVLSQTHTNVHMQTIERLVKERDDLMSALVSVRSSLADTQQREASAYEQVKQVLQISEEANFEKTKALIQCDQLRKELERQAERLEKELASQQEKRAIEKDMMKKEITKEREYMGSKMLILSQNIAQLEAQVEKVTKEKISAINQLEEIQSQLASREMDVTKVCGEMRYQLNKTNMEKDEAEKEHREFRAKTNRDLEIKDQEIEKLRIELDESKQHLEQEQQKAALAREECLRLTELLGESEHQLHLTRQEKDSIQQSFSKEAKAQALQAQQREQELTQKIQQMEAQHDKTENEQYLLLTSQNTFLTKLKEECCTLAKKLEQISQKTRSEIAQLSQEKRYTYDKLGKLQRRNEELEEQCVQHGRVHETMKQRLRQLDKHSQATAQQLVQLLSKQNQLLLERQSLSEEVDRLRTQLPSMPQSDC
UniProt O95487: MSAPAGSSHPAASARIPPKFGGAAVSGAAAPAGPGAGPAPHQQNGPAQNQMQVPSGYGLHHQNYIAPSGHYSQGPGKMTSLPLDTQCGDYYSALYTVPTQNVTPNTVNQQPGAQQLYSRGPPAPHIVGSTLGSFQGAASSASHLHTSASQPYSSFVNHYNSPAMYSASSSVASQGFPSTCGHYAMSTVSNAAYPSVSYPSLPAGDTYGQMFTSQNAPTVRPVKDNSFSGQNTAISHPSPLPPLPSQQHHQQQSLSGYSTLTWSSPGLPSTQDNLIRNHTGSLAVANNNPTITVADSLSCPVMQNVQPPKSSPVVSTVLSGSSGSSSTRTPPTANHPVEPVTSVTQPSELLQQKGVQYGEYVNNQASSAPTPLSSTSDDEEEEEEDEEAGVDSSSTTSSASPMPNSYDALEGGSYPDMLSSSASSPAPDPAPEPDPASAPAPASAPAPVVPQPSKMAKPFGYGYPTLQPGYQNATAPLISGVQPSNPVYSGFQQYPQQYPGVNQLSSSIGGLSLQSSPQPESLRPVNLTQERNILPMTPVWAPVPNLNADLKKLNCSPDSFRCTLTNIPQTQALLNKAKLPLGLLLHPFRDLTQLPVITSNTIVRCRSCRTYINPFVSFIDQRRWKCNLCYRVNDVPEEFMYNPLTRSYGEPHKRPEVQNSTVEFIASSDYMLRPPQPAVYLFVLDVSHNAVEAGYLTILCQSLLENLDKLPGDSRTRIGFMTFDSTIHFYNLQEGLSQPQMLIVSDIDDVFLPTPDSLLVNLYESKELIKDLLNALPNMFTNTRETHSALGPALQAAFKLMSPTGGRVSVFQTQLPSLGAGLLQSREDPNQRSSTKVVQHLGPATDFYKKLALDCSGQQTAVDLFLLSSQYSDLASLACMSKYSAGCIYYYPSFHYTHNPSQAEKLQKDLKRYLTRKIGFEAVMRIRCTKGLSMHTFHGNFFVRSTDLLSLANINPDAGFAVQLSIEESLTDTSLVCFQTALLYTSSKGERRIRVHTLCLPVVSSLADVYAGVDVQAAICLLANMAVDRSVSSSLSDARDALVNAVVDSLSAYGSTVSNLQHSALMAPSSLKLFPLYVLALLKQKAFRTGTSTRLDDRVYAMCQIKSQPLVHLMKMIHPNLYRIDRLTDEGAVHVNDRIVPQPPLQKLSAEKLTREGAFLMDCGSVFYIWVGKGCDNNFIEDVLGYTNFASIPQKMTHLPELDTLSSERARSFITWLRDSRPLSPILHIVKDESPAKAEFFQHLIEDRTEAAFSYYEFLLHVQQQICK
UniProt Q7Z5N4: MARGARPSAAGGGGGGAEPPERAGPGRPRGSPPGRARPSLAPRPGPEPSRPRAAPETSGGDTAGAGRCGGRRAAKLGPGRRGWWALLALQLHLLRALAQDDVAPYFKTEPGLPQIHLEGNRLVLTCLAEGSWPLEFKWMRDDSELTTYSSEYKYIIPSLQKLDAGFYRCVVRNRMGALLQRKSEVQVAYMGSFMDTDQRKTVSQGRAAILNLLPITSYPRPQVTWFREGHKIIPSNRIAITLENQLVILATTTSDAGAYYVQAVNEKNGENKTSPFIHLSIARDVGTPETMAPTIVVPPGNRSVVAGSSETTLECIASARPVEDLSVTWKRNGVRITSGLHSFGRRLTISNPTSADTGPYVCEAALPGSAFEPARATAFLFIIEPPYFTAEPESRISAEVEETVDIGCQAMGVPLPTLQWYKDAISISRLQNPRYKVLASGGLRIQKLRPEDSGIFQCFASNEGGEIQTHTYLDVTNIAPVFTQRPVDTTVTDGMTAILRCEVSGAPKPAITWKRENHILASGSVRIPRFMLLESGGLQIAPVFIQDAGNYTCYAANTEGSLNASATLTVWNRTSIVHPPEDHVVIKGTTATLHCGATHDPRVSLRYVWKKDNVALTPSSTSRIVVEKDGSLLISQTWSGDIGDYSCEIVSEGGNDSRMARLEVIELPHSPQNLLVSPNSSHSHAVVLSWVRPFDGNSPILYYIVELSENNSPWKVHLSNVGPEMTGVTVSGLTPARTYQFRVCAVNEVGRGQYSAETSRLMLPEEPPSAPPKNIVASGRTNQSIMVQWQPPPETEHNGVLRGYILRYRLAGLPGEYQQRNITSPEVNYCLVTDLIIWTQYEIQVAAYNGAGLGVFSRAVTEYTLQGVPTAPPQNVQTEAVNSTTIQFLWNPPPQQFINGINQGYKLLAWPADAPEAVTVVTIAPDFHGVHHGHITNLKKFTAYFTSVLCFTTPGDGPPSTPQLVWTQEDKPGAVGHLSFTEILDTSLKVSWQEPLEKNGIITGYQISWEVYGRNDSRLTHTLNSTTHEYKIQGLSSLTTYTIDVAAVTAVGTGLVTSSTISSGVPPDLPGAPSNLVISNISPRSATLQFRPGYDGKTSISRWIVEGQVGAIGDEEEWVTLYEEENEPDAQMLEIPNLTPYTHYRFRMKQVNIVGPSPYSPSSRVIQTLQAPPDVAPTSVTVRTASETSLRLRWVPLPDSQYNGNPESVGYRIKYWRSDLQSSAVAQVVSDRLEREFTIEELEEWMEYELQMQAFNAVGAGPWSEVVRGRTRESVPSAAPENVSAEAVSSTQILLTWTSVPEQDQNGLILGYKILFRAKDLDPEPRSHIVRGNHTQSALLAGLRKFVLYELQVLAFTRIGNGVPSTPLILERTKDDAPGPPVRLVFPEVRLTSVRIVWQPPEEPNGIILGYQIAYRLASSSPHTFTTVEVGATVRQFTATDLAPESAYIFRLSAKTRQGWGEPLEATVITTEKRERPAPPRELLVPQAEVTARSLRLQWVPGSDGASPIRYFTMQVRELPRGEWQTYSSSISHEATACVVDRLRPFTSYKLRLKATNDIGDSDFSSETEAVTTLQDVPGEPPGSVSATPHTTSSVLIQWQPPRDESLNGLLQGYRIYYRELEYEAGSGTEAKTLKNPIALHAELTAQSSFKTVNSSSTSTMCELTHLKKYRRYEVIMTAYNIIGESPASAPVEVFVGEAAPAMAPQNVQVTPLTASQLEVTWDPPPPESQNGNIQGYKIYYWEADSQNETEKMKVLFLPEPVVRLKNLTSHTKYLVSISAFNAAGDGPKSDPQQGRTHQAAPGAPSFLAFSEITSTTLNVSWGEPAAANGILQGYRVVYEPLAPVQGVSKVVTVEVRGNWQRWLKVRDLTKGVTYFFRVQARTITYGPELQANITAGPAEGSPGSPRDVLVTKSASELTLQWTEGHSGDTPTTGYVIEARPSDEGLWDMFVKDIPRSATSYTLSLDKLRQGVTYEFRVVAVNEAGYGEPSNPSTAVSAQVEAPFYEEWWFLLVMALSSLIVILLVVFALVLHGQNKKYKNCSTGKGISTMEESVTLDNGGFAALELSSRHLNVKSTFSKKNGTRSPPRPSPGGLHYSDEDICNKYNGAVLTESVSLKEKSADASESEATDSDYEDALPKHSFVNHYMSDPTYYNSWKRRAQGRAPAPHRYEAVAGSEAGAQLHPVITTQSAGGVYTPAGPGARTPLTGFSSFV
UniProt Q15437: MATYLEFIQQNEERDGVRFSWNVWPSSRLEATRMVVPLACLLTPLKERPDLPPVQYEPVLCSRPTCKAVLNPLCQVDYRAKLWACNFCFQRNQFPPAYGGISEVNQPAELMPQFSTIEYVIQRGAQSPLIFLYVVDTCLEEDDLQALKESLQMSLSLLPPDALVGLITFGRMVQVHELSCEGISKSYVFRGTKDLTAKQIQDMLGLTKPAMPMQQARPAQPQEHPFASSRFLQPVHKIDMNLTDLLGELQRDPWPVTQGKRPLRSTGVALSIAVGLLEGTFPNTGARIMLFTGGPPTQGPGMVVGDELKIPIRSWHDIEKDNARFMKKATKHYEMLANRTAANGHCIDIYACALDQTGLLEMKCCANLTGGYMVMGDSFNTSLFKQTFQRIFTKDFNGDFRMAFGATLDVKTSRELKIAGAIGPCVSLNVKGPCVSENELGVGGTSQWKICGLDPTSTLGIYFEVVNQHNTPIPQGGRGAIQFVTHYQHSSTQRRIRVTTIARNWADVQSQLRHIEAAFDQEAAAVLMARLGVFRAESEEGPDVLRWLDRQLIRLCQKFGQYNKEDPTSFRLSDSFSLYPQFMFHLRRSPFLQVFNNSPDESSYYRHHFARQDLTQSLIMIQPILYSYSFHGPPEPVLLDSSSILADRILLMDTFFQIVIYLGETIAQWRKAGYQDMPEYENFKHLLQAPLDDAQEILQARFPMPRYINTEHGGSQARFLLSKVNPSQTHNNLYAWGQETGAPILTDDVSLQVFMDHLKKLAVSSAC
UniProt Q9NR31: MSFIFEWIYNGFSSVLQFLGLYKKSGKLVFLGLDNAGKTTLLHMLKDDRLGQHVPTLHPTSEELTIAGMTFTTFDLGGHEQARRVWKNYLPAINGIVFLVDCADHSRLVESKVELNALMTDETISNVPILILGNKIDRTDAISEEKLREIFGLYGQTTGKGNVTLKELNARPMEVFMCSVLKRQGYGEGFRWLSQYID

The other results are listed elsewhere or left out.
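Also: competitive profiling in live THP-1 cells: cysteine peptides tagged with an iodoacetamide desthiobiotin (IA-DTB) probe, intensity after compound treatment relative to DMSO-treated cells.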

Compound in one assay: Cc1cc(ccc1-c1ccccc1)C(=O)N1CCCN(CC1)C(=O)CCl [compound 10]
In words: probe-labelled cysteine peptide fold change vs DMSO (competition) (log2 fold change); higher = less target engagement (more negative = stronger competition). The conditions noted are these: 10 µM; THP-1; incubation time: 4 h.
As for “SEC31A_O94979_60_SCATFSSSHR (UniProt O94979)”, the “probe-labelled cysteine peptide fold change” value stood at 0.205.
On the same count and under the same terms, the same measure for “SAR1B_Q9Y6B6_178_ELNARPLEVFMCSVLK (UniProt Q9Y6B6)”: 0.0365; for “SEC24D_O94855_853_NCVLLSRPEISTDER (UniProt O94855)”: 0.103; for “SEL1L_Q9UBV2_127_PALTAIEGTAHGEPCHFPFLFLDK (UniProt Q9UBV2)”: -0.142.
Same read-out and setting: the same measure for “SDCCAG8_Q86SQ7_236_CEIEESQLK (UniProt Q86SQ7)”: 0.069.
“SEC31A_O94979_173_TQPPEDISCIAWNR (UniProt O94979)”: the “probe-labelled cysteine peptide fold change” value came to 0.0307.
Same read-out and setting: next, “SATB1_Q01826_78_KGTMLPVFCVVEHYENAIEYDCKEEHAEFVLVR (UniProt Q01826)”: 0.0714; “SATB2_Q9UPW6_159_IQLQSCSK (UniProt Q9UPW6)”: -0.0941; “SDHA_P31040_475_ACALSIEESCRPGDKVPPIKPNAGEESVMNLDK (UniProt P31040)”: -0.0585.
Consider “SCML2_Q9UQR0_559_SSSLNSGNYLNPACR (UniProt Q9UQR0)”, for which the “probe-labelled cysteine peptide fold change” value is -0.163.
Same read-out and setting: next, “SCYL1_Q96KG9_512_ILPVLCGLTVDPEK (UniProt Q96KG9)”: 0.113; “SCARB2_Q14108_274_DEVLYVFPSDFCR (UniProt Q14108)”: 0.152; “SCMH1_Q96GD3_76_NTTSTCIATVVGLTGAR (UniProt Q96GD3)”: 0.162.
As to “SCAF4_O95104_506_GLPQVKPETASVCSTTLWVGQLDKR (UniProt O95104)”, the “probe-labelled cysteine peptide fold change” value is -0.0376.
Regarding “SEC16A_O15027_1797_TEAYEYAQSLGAETCPLPSFQVFK (UniProt O15027)”, the “probe-labelled cysteine peptide fold change” value is -0.124.
The same measure, in the same setting: next, “SDAD1_Q9NVU7_87_DLLSCNHTVLDPDLR (UniProt Q9NVU7)”: 0.0323; “SCP2_P22307_495_KADCTITMADSDFLALMTGK (UniProt P22307)”: 0.142; “SEC24B_O95487_1103_VYAMCQIK (UniProt O95487)”: -0.0244.
Consider “SDK1_Q7Z5N4_126_LVLTCLAEGSWPLEFK (UniProt Q7Z5N4)”, for which the “probe-labelled cysteine peptide fold change” value was 0.0533.
Still for that read-out and setting: the same measure for “SDSL_Q96GA7_69_HLVCSSGGNAGIAAAYAAR (UniProt Q96GA7)”: 0.0382.
Same read-out and setting: the same measure for “SEC23B_Q15437_434_GPCVSENELGVGGTSQWK (UniProt Q15437)”: 0.152.
Same read-out and setting: next, “SCIN_Q9Y6U3_619_LYGCSNK (UniProt Q9Y6U3)”: -0.185; “SEC23B_Q15437_425_IAGAIGPCVSLNVK (UniProt Q15437)”: 0.0893; “SEC13_P55735_153_KINNAHTIGCNAVSWAPAVVPGSLIDHPSGQKPNYIK (UniProt P55735)”: 0.0479.
For “SATB2_Q9UPW6_195_ECPLSQSMISSIVNSTYYANVSATK (UniProt Q9UPW6)”, the “probe-labelled cysteine peptide fold change” value amounted to 0.307.
Same read-out and setting: the same measure for “SART1_O43290_560_GAIVFNATSEFCR (UniProt O43290)”: -0.126; for “SEC63_Q9UGP8_490_EQSICAAEEQPAEDGQGETNK (UniProt Q9UGP8)”: -0.2; for “SATB1_Q01826_78_GTMLPVFCVVEHYENAIEYDCKEEHAEFVLVRK (UniProt Q01826)”: -0.162.
Regarding “SATB2_Q9UPW6_246_VERENLSDYCVLGQR (UniProt Q9UPW6)”, the “probe-labelled cysteine peptide fold change” value was 0.127.
On to “SEC24B_O95487_887_YSAGCIYYYPSFHYTHNPSQAEK (UniProt O95487)”, for which the “probe-labelled cysteine peptide fold change” value stood at 0.182.
As for “SCAF11_Q99590_506_KLENTGIEANVLCLESEISENILEK (UniProt Q99590)”, the “probe-labelled cysteine peptide fold change” value is -0.478.
On to “SEPT3_Q9UH03_295_KTPWGIIEVENLNHCEFALLR (UniProt Q9UH03)”, for which the “probe-labelled cysteine peptide fold change” value is -0.17.
Still for that read-out and setting: the same measure for “SDHA_P31040_438_HVNGQDQIVPGLYACGEAACASVHGANR (UniProt P31040)”: 0.117; for “SEC13_P55735_77_GHEGPVWQVAWAHPMYGNILASCSYDR (UniProt P55735)”: -0.106; for “SEMA4A_Q9H3S1_547_GNPEWACASGPMSR (UniProt Q9H3S1)”: -0.0882.
The same measure, in the same setting: the same measure for “SBF1_O95248_987_SCTFQLLK (UniProt O95248)”: 0.0279.
On the same count and under the same terms, next, “SEC24C_P53992_832_IHNLALNCCTQLADLYR (UniProt P53992)”: 0.245; “SBDS_Q9Y3A5_216_VIESEDYGQQLEIVCLIDPGCFR (UniProt Q9Y3A5)”: 0.237; “SAR1A_Q9NR31_102_NYLPAINGIVFLVDCADHSR (UniProt Q9NR31)”: 0.119.

Still in this assay, the particulars now being: 50 µM; THP-1; incubation time: 4 h.
“SEC31A_O94979_60_SCATFSSSHR (UniProt O94979)”: the “probe-labelled cysteine peptide fold change” value was 0.141.
Consider “SAR1B_Q9Y6B6_178_ELNARPLEVFMCSVLK (UniProt Q9Y6B6)”, for which the “probe-labelled cysteine peptide fold change” value is -0.126.
Same read-out and setting: next, “SEC24D_O94855_853_NCVLLSRPEISTDER (UniProt O94855)”: -0.191; “SEL1L_Q9UBV2_127_PALTAIEGTAHGEPCHFPFLFLDK (UniProt Q9UBV2)”: 0.506; “SDCCAG8_Q86SQ7_236_CEIEESQLK (UniProt Q86SQ7)”: -0.322.
On to “SEC31A_O94979_173_TQPPEDISCIAWNR (UniProt O94979)”, for which the “probe-labelled cysteine peptide fold change” value was determined as 0.197.
“SATB1_Q01826_78_KGTMLPVFCVVEHYENAIEYDCKEEHAEFVLVR (UniProt Q01826)”: the “probe-labelled cysteine peptide fold change” value was -0.228.
Consider “SATB2_Q9UPW6_159_IQLQSCSK (UniProt Q9UPW6)”, for which the “probe-labelled cysteine peptide fold change” value came to 0.0522.
Take “SDHA_P31040_475_ACALSIEESCRPGDKVPPIKPNAGEESVMNLDK (UniProt P31040)”: the “probe-labelled cysteine peptide fold change” value was -0.104.
Still for that read-out and setting: next, “SCML2_Q9UQR0_559_SSSLNSGNYLNPACR (UniProt Q9UQR0)”: -0.649; “SCYL1_Q96KG9_512_ILPVLCGLTVDPEK (UniProt Q96KG9)”: 0.0812; “SCARB2_Q14108_274_DEVLYVFPSDFCR (UniProt Q14108)”: 0.161.
On the same count and under the same terms, the same measure for “SCMH1_Q96GD3_76_NTTSTCIATVVGLTGAR (UniProt Q96GD3)”: 0.276; for “SCAF4_O95104_506_GLPQVKPETASVCSTTLWVGQLDKR (UniProt O95104)”: -0.21; for “SEC16A_O15027_1797_TEAYEYAQSLGAETCPLPSFQVFK (UniProt O15027)”: -0.103.
For “SDAD1_Q9NVU7_87_DLLSCNHTVLDPDLR (UniProt Q9NVU7)”, the “probe-labelled cysteine peptide fold change” value was 0.494.
With “SCP2_P22307_495_KADCTITMADSDFLALMTGK (UniProt P22307)”, the “probe-labelled cysteine peptide fold change” value was 0.0707.
With “SEC24B_O95487_1103_VYAMCQIK (UniProt O95487)”, the “probe-labelled cysteine peptide fold change” value was -0.0589.
“SDK1_Q7Z5N4_126_LVLTCLAEGSWPLEFK (UniProt Q7Z5N4)”: the “probe-labelled cysteine peptide fold change” value is 0.151.
On the same count and under the same terms, the same measure for “SDSL_Q96GA7_69_HLVCSSGGNAGIAAAYAAR (UniProt Q96GA7)”: 0.127; for “SEC23B_Q15437_434_GPCVSENELGVGGTSQWK (UniProt Q15437)”: -0.0746; for “SCIN_Q9Y6U3_619_LYGCSNK (UniProt Q9Y6U3)”: -0.0102.
The same measure, in the same setting: next, “SEC23B_Q15437_425_IAGAIGPCVSLNVK (UniProt Q15437)”: 0.0455; “SEC13_P55735_153_KINNAHTIGCNAVSWAPAVVPGSLIDHPSGQKPNYIK (UniProt P55735)”: -0.452; “SATB2_Q9UPW6_195_ECPLSQSMISSIVNSTYYANVSATK (UniProt Q9UPW6)”: 0.108.
As to “SART1_O43290_560_GAIVFNATSEFCR (UniProt O43290)”, the “probe-labelled cysteine peptide fold change” value was -0.0878.
Still for that read-out and setting: the same measure for “SEC63_Q9UGP8_490_EQSICAAEEQPAEDGQGETNK (UniProt Q9UGP8)”: 0.025.
On to “SATB1_Q01826_78_GTMLPVFCVVEHYENAIEYDCKEEHAEFVLVRK (UniProt Q01826)”, for which the “probe-labelled cysteine peptide fold change” value is -0.151.
“SATB2_Q9UPW6_246_VERENLSDYCVLGQR (UniProt Q9UPW6)”: the “probe-labelled cysteine peptide fold change” value was -0.158.
On the same count and under the same terms, next, “SEC24B_O95487_887_YSAGCIYYYPSFHYTHNPSQAEK (UniProt O95487)”: 0.0862; “SCAF11_Q99590_506_KLENTGIEANVLCLESEISENILEK (UniProt Q99590)”: 0.011; “SEPT3_Q9UH03_295_KTPWGIIEVENLNHCEFALLR (UniProt Q9UH03)”: -0.0664.
For the target “SDHA_P31040_438_HVNGQDQIVPGLYACGEAACASVHGANR (UniProt P31040)”, the “probe-labelled cysteine peptide fold change” value was 0.0834.
“SEC13_P55735_77_GHEGPVWQVAWAHPMYGNILASCSYDR (UniProt P55735)”: the “probe-labelled cysteine peptide fold change” value is -0.12.
On the same count and under the same terms, next, “SEMA4A_Q9H3S1_547_GNPEWACASGPMSR (UniProt Q9H3S1)”: -0.865; “SBF1_O95248_987_SCTFQLLK (UniProt O95248)”: 0.0984.
“SEC24C_P53992_832_IHNLALNCCTQLADLYR (UniProt P53992)”: the “probe-labelled cysteine peptide fold change” value is 0.381.
As for “SBDS_Q9Y3A5_216_VIESEDYGQQLEIVCLIDPGCFR (UniProt Q9Y3A5)”, the “probe-labelled cysteine peptide fold change” value amounted to 0.238.
On the same count and under the same terms, the same measure for “SAR1A_Q9NR31_102_NYLPAINGIVFLVDCADHSR (UniProt Q9NR31)”: 0.185.
